Data published in PubChem BioAssay AID493014 (National Center for Advancing Translational Sciences (NCATS), 2011).
The other results are listed elsewhere or left out. The main result of the screen is listed elsewhere. These columns were measured beside it and carry no call. Compounds called inactive in the main read-out are mostly missing here. The note in brackets gives the kind of curve behind each potency; many fits are weak.

Assay: qHTS Assay to Find Inhibitors of Chronic Active B-Cell Receptor Signaling
Settings: ABC-DLBCL IkBa-CBG/CBR reporter, luminescence ratio (green luciferase fused to IkBa over red control in TMD8 lymphoma cells), 4 h
In short: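 Cell line TMD8 (human ABC DLBCL), stably expressing tet-inducible CBG68-IkBa fusion and CBR; IMDM/0.5% FBS; cpd up to 46 uM; dox induction, 4 h, 37C/5% CO2; dual luminescence; green/red ratio; MG132 control.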

[1] = measured here: CBR red luminescence, cell number
[2] = measured here: IkBa-CBG green luminescence

Row | Structure (SMILES) | AC50 [1] | AC50 [2]
1 | CCOc1ccc(C(=O)Nc2cc(-c3nc4ccccc4[nH]3)ccc2C)cc1[N+](=O)[O-] | 1.12 µM [rising, full curve] | 1.41 µM [falling, partial curve, poor fit]
2 | CCOC(=O)c1sc(N2C(=O)C(O)=C(C(=O)c3ccco3)C2c2ccc(C)o2)nc1C (centres undefined) | 0.141 µM [falling, full curve, poor fit] | 
3 | Cc1sc2ncnc(N/N=C/c3ccc(O)cc3)c2c1C | 3.66 µM [falling, full curve] | 
4 | O=C1NC(=O)/C(=C\c2ccc(Br)o2)S1 | 31.6 µM [rising, partial curve, poor fit] | 
5 | O=C(CNS(=O)(=O)c1c(Cl)cccc1Cl)OCc1csc(-c2ccccc2)n1 | 20.6 µM [rising, single point] | 
6 | Cc1ccccc1NC(=S)N/N=C/C(C)c1ccccc1 (centres undefined) | 12.6 µM [falling, single point] | 
7 | O=C(CSC(=S)N1CCCCC1)Nc1ncc2c(n1)CC(c1ccco1)CC2=O (centres undefined) | 7.08 µM [rising, partial curve, poor fit] | 
8 | COc1ccc(C(C(=O)NCC2CCCO2)N(C(=O)CNC(=O)c2cccs2)c2ccc(C(C)=O)cc2)cc1OC (centres undefined) | 7.08 µM [rising, partial curve, poor fit] | 
9 | CC(=C/c1ccccc1)/C=N/NC(=O)c1ccccn1 | 10 µM [falling, partial curve] | 
10 | N/C(=N\OCc1ccc([N+](=O)[O-])cc1)c1ccccn1 | 5.01 µM [falling, partial curve] | 
11 | O=C(NCc1ccc(Cl)cc1)c1cc(=O)[nH]c2ccccc12 | 35.5 µM [rising, single point] | 
12 | COc1ccc(C(=O)Nc2sc3c(c2C#N)CCN(C(C)=O)C3)cc1 | 10 µM [rising, partial curve, poor fit] | 25.1 µM [falling, single point]
13 | CC(C)[N+]1(C)[C@@H]2CC[C@@H]1CC(OC(=O)C(CO)c1ccccc1)C2 (some centres undefined) | 0.092 µM [falling, full curve, poor fit] | 
14 | C=CCN1C(=O)N(c2ccc(F)cc2)C(=O)C1CC(=O)Nc1ccc(Cl)cc1 (centres undefined) | 35.5 µM [falling, single point] | 
15 | COc1cccc(/C=C/C(=O)c2ccc3c(c2)OCCO3)c1OC | 25.1 µM [falling, single point] | 
16 | CC(C)c1cc(C(=O)N2CCCC(C(=O)c3ccc4ccccc4c3)C2)on1 (centres undefined) | 2 µM [rising, partial curve] | 
17 | COc1ccc(C2C(C#N)=C(N)Oc3cc(C)[nH]c(=O)c32)c(OC)c1OC (centres undefined) | 4.11 µM [falling, single point] | 

Some of the entries so far, tab-delimited:
Row	Structure (SMILES)	AC50 [1]	AC50 [2]
3	Cc1sc2ncnc(N/N=C/c3ccc(O)cc3)c2c1C	3.66 µM [falling, full curve]	
9	CC(=C/c1ccccc1)/C=N/NC(=O)c1ccccn1	10 µM [falling, partial curve]	
